From patent publication US20110239316A1
Results are given in words; binding and its absence hold for the method and conditions named. Some results given as binding are weak or reduced against the parent protein; the word gives no strength.

Protein sequences, listed by entry. Tags and fused reporters are not part of them. Residues count along the entry.
UniProt P08581, residues 25-932: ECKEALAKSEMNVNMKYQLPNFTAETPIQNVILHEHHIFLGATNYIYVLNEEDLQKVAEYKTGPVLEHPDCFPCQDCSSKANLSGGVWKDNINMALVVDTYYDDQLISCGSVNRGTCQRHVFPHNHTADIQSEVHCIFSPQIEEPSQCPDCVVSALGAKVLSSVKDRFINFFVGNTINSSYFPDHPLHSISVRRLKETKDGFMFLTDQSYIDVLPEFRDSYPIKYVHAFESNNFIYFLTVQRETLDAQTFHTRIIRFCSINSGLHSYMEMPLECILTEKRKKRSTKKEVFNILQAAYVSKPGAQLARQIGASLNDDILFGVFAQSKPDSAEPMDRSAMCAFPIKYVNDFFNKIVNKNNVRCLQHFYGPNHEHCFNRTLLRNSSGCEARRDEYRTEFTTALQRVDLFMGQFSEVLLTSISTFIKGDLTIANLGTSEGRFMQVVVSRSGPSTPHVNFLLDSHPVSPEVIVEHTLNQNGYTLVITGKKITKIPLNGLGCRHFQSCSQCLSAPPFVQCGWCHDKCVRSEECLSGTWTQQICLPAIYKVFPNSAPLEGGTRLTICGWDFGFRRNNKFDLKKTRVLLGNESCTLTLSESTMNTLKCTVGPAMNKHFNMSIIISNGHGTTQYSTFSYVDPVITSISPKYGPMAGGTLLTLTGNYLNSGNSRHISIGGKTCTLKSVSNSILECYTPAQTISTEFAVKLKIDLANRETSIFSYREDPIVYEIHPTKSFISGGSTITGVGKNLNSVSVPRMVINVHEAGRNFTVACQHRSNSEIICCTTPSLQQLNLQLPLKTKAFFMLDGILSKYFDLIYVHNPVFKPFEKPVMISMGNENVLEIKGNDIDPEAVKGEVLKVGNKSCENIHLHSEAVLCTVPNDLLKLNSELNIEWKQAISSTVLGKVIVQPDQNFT

Biological target: recombinant dimeric c-Met from R&D Systems (UniProt P08581)
Assay: direct ELISA, recombinant dimeric c-Met coated at 1.25 µg/ml, anti-mouse IgG HRP

B1: murine 224G11 Mab (antibody, V domains shown)
VH: EVQLQQSGPELVKPGASVKISCKTSGYIFTAYTMHWVRQSLGESLDWIGGIKPNNGLANYNQKFKGKATLTVDKSSSTAYMDLRSLTSEDSAVYYCARSEITTEFDYWGQGTALTVSS
VL: DIVLTQSPASLAVSLGQRATISCRASESVDSYANSFMHWYQQKPGQPPKLLIYRASNLESGIPARFSGSGSRTDFTLTINPVEADDVATYYCQQSKEDPLTFGSGTKLEMKR
binding: binds
